From article PMC6789111 (Nature Communications, 2019)

Assay: general procedure: Fmoc solid-phase peptide synthesis; 2-chlorotrityl chloride resin (Cl-Resin, Genscript); HBTU/DIEA
Settings: whole synthesis, analytical HPLC

Row | Substance | final HPLC purity [%]
1 | PEPTIDE1{C.G.Y.R.P.V.H.N.I.R.G.H.W.A.P.G.[KF5]}$$$$V2.0 | 98.36
2 | PEPTIDE1{[fam5].C.G.Y.R.P.V.H.N.I.R.G.H.G.A.P.G}$$$$V2.0 | 98.26
3 | PEPTIDE1{[fam5].C.G.Y.R.P.V.H.N.I.R.G.H.W.A.P.G}$$$$V2.0 | 98.91
4 | Cy5.5-CGYRPVHNIRGHWAPG | 98.20
5 | PEPTIDE1{[fam5].C.G.Y.R.P.V.H.N.I.G.H.W.R.A.P.G}$$$$V2.0 | 98.56
6 | PEPTIDE1{C.G.Y.R.P.V.H.N.I.R.G.H.W.A.P.G}$$$$V2.0 | 98.11
7 | Cy5.5- CGYRPVHNIGHWRAPG | 98.50
8 | PEPTIDE1{[fam5].G.Y.R.P.V.H.N.I.R.G.H.W.A.P.G}$$$$V2.0 | 98.46

Some peptides are written in HELM: one residue between dots, names in brackets for other building blocks, links after the first $.
